Values quoted from earlier work, collected in patent US12403100B2, “Natural combination products and methods for regulation of total blood cholesterol” (priority 2018, dated 2025).

By UniProt entry, the sequences of proteins in these tests, tags left out.
UniProt P08684, whole entry: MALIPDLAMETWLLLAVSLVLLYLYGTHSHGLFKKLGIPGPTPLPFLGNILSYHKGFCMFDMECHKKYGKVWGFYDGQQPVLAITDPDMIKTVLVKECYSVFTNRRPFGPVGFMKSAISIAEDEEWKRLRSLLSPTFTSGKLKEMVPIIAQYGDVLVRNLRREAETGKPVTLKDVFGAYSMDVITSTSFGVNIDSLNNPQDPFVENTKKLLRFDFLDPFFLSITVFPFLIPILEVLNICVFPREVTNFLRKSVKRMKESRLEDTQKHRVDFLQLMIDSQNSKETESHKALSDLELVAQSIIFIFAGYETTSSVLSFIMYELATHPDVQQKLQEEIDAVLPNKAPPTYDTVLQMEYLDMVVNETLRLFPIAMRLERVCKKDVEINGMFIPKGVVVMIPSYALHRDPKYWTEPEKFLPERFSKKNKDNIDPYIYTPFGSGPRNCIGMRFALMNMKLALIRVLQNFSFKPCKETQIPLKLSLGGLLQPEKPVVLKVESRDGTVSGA

How the values were obtained:
[1] = test system: plasma proteins
[2] = in vivo
[3] = target: CYP 3A4 (Homo sapiens, UniProt P08684)
[4] = test system: CYP450
[5] = in vivo; remark: listed apart in the source

Binding to Plasma proteins (%) [1]: 98%
Absorption (%) [2]: 95-99%
Renal excretion (%) [2]: 2%
metabolized by CYP 3A4 [3]: metabolized
Metabolism by CYP450 [4]: Yes
Passing through the blood-brain barrier [5]: Yes
Structure (SMILES): CC(C)c1c(C(=O)Nc2ccccc2)c(-c2ccccc2)c(-c2ccc(F)cc2)n1CC[C@@H](O)C[C@@H](O)CC(=O)O [Atorvastatin]
